Experimental data reported in patent publication US11752210B2, “Sensitizing composition using electromagnetic waves for thermal therapy of cancers, and cancer therapy using same” (JINIS CO., LTD., priority 2013, dated 2023).

Test: Heat generation performance of apotransferrin and iron ion-bound apotransferrin aqueous solutions under electromagnetic waves (Test Example 3)
Assay type: physicochemical
Details: 100 W for 3 min

Row | Substance | change in temperature of aqueous solution before and after electromagnetic waves (all concentrations (0, 0.04, 0.2, 1 and 5 mg/ml)) | increase in temperature of aqueous solution before and after electromagnetic waves (1 mg/ml) [°C] | increase in temperature of aqueous solution before and after electromagnetic waves (5 mg/ml) [°C]
1 | apotransferrin: apotransferrin (Sigma Aldrich, USA) having no iron ion bound thereto | less than 3 °C | – | –
2 | transferrin: iron ion-bound apotransferrin prepared by reacting ferric hydroxide solution with apotransferrin at 37° C. for 30 min | – | 4.4 | 10.9
